Results are given in words; binding and its absence hold for the method and conditions named. Binding seen in cells or lysates may run through a third protein. Some results given as binding are weak or reduced against the parent protein; the word gives no strength. For part of these data: Sequences can lack the tags named with a protein. Each block holds one molecule with its values, some of them ahead of it.
What was measured:
Assay in all cases: co-IP
[1] = target: T1, Hsh155-TAP (yeast (s288c background)) (UniProt P49955)
T1 sequence: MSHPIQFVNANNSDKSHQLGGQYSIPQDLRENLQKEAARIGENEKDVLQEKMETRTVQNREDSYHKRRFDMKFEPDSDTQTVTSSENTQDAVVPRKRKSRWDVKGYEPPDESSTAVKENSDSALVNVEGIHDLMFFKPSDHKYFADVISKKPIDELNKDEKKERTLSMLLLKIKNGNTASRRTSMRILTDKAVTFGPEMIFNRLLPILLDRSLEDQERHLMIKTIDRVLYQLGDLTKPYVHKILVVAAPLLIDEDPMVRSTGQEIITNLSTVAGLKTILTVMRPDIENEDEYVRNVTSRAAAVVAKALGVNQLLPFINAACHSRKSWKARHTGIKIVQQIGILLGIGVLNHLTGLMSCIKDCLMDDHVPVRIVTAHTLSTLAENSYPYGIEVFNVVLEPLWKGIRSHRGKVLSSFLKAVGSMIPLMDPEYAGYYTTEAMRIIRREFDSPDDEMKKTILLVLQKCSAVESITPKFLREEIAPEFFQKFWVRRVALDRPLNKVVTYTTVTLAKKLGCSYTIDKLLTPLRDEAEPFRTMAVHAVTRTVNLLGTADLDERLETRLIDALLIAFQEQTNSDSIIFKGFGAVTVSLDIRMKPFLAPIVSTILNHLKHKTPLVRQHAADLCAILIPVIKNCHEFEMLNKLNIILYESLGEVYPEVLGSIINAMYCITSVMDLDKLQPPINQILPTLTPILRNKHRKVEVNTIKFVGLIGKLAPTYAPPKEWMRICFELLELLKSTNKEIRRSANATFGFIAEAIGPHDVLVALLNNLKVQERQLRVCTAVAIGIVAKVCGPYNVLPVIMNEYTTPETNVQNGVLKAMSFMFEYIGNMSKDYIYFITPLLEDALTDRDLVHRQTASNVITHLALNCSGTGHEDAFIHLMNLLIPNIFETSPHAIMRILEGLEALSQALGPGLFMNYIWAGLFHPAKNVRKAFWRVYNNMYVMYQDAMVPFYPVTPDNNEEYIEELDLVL

Chains of the proteins cited; added tags and fusions are not shown.
UniProt P25694: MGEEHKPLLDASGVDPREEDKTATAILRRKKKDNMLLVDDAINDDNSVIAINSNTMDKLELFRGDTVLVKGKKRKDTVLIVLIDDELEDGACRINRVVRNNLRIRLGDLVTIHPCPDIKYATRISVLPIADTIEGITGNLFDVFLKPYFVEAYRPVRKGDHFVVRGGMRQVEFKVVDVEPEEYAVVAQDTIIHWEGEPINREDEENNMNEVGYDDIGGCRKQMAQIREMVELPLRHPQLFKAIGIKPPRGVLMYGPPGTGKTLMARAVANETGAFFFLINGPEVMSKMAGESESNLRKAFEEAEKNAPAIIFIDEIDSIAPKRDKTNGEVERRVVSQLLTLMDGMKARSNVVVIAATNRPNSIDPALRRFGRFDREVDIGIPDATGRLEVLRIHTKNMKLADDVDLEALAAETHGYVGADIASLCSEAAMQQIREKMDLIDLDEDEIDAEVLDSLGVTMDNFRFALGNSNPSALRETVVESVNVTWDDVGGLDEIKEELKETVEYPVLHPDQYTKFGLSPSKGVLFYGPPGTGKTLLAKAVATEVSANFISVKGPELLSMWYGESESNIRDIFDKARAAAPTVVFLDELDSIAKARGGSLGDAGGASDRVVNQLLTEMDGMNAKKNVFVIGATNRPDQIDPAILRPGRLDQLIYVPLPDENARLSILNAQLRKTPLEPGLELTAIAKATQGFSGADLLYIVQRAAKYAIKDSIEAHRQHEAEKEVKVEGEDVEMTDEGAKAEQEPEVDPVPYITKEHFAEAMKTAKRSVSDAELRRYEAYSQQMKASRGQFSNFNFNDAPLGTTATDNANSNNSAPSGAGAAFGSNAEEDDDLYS

[2] = target: Cdc48-TAP (yeast (s288c background)) (UniProt P25694)
[3] = target: T2, TAP tagged Cus1 (yeast (s288c background)) (UniProt Q02554)
T2 sequence: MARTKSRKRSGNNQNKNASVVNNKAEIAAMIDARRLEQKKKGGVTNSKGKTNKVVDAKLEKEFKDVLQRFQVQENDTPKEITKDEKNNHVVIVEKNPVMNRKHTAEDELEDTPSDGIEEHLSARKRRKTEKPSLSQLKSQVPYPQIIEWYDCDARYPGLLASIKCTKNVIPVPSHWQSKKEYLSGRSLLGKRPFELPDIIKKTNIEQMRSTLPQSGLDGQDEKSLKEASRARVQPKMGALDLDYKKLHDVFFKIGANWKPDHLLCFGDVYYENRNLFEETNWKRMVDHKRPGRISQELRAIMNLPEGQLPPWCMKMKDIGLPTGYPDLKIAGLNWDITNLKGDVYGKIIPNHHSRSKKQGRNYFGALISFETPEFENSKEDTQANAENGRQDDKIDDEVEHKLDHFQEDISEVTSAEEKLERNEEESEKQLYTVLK

- binding [1]: binds
Molecule: Cdc48-GFP (from UniProt P25694 1-835)

- binding [2]: binds
- binding [3]: binds
B1: Hsh155-GFP (protein, UniProt P49955 1-971)
chain: T1 sequence

Source: doi:10.1101/2020.06.16.152934
